{"source": "patent US9101141B2", "about": "“N-(1,3,4-oxadiazol-2-yl)arylcarboxamides and use thereof as herbicides” (BAYER INTERLLECTUAL PROPERTY GMBH, priority 2011, dated 2015)", "format_in_all_cases": "in vivo", "key": {"Stellaria media": {"test_system": "Stellaria media", "test": "Post-emergence herbicidal action against harmful plants", "conditions": "one-leaf stage, application rate 80 g/ha, visual assessment after about 3 weeks vs untreated controls"}, "Echinochloa crus galli": {"test_system": "Echinochloa crus galli", "test": "Post-emergence herbicidal action against harmful plants", "conditions": "one-leaf stage, application rate 80 g/ha, visual assessment after about 3 weeks vs untreated controls"}, "Pharbitis purpureum": {"test_system": "Pharbitis purpureum", "test": "Post-emergence herbicidal action against harmful plants", "conditions": "one-leaf stage, application rate 80 g/ha, visual assessment after about 3 weeks vs untreated controls"}, "Amaranthus retroflexus [1]": {"test_system": "Amaranthus retroflexus", "test": "Pre-emergence herbicidal action against harmful plants", "conditions": "application rate 320 g/ha, visual assessment after 3 weeks vs untreated controls"}, "Matricaria inodora": {"test_system": "Matricaria inodora", "test": "Pre-emergence herbicidal action against harmful plants", "conditions": "application rate 320 g/ha, visual assessment after 3 weeks vs untreated controls"}, "Abutilon theophrasti [2]": {"test_system": "Abutilon theophrasti", "test": "Post-emergence herbicidal action against harmful plants", "conditions": "one-leaf stage, application rate 80 g/ha, visual assessment after about 3 weeks vs untreated controls"}, "Amaranthus retroflexus [3]": {"test_system": "Amaranthus retroflexus", "test": "Post-emergence herbicidal action against harmful plants", "conditions": "one-leaf stage, application rate 80 g/ha, visual assessment after about 3 weeks vs untreated controls"}, "Setaria viridis": {"test_system": "Setaria viridis", "test": "Pre-emergence herbicidal action against harmful plants", "conditions": "application rate 320 g/ha, visual assessment after 3 weeks vs untreated controls"}, "Viola tricolor [4]": {"test_system": "Viola tricolor", "test": "Pre-emergence herbicidal action against harmful plants", "conditions": "application rate 320 g/ha, visual assessment after 3 weeks vs untreated controls"}, "Abutilon theophrasti [5]": {"test_system": "Abutilon theophrasti", "test": "Pre-emergence herbicidal action against harmful plants", "conditions": "application rate 320 g/ha, visual assessment after 3 weeks vs untreated controls"}, "Viola tricolor [6]": {"test_system": "Viola tricolor", "test": "Post-emergence herbicidal action against harmful plants", "conditions": "one-leaf stage, application rate 80 g/ha, visual assessment after about 3 weeks vs untreated controls"}, "Veronica persica": {"test_system": "Veronica persica", "test": "Pre-emergence herbicidal action against harmful plants", "conditions": "application rate 320 g/ha, visual assessment after 3 weeks vs untreated controls"}}, "note": "Some results were stated once for a whole list of compounds, not compound by compound.", "data": [{"smiles": "COCCc1nnc(NC(=O)c2ccc(S(C)(=O)=O)c(Cl)c2Cl)o1", "note": "[6-699]", "values": [{"measurement": "efficacy against Stellaria media (herbicidal action in percent)", "setting": "Stellaria media", "result": "at least 80%"}]}, {"smiles": "Cc1nnc(NC(=O)c2ccc(Cl)c(OCC(=O)N(C)C)c2Cl)o1", "note": "[2-240]", "values": [{"measurement": "efficacy against Echinochloa crus galli (herbicidal action in percent)", "setting": "Echinochloa crus galli", "result": "at least 80%"}, {"measurement": "efficacy against Pharbitis purpureum (herbicidal action in percent)", "setting": "Pharbitis purpureum", "result": "at least 80%"}]}, {"smiles": "CS(=O)(=O)c1ccc(C(=O)Nc2nnc(C(F)(F)F)o2)c(Cl)c1COCC(F)(F)F", "note": "[4-255]", "values": [{"measurement": "efficacy against Amaranthus retroflexus (herbicidal activity in percent)", "setting": "Amaranthus retroflexus [1]", "result": "at least 80%"}, {"measurement": "efficacy against Matricaria inodora (herbicidal activity in percent)", "setting": "Matricaria inodora", "result": "at least 80%"}, {"measurement": "efficacy against Stellaria media (herbicidal action in percent)", "setting": "Stellaria media", "result": "at least 80%"}]}, {"smiles": "Cc1nnc(NC(=O)c2ccc(S(C)(=O)=O)c(Cl)c2Cl)o1", "note": "[2-246]", "values": [{"measurement": "efficacy against Amaranthus retroflexus (herbicidal activity in percent)", "setting": "Amaranthus retroflexus [1]", "result": "at least 80%"}, {"measurement": "efficacy against Matricaria inodora (herbicidal activity in percent)", "setting": "Matricaria inodora", "result": "at least 80%"}, {"measurement": "efficacy against Echinochloa crus galli (herbicidal action in percent)", "setting": "Echinochloa crus galli", "result": "at least 80%"}, {"measurement": "efficacy against Pharbitis purpureum (herbicidal action in percent)", "setting": "Pharbitis purpureum", "result": "at least 80%"}, {"measurement": "efficacy against Abutilon theophrasti (herbicidal action in percent)", "setting": "Abutilon theophrasti [2]", "result": "at least 80%"}, {"measurement": "efficacy against Amaranthus retroflexus (herbicidal action in percent)", "setting": "Amaranthus retroflexus [3]", "result": "at least 80%"}]}, {"smiles": "Cc1nnc(NC(=O)c2ccc(S(C)(=O)=O)c(COCC(F)(F)F)c2Cl)o1", "note": "[2-255]", "values": [{"measurement": "efficacy against Setaria viridis (herbicidal activity in percent)", "setting": "Setaria viridis", "result": "at least 80%"}, {"measurement": "efficacy against Viola tricolor (herbicidal activity in percent)", "setting": "Viola tricolor [4]", "result": "at least 80%"}, {"measurement": "efficacy against Abutilon theophrasti (herbicidal action in percent)", "setting": "Abutilon theophrasti [2]", "result": "at least 80%"}, {"measurement": "efficacy against Amaranthus retroflexus (herbicidal action in percent)", "setting": "Amaranthus retroflexus [3]", "result": "at least 80%"}]}, {"smiles": "Cc1c(C(=O)Nc2nnc(C(F)(F)F)o2)ccc(C(F)(F)F)c1S(C)(=O)=O", "note": "[4-145]", "values": [{"measurement": "efficacy against Abutilon theophrasti (herbicidal activity in percent)", "setting": "Abutilon theophrasti [5]", "result": "at least 80%"}, {"measurement": "efficacy against Matricaria inodora (herbicidal activity in percent)", "setting": "Matricaria inodora", "result": "at least 80%"}, {"measurement": "efficacy against Viola tricolor (herbicidal action in percent)", "setting": "Viola tricolor [6]", "result": "at least 80%"}]}, {"smiles": "CCc1nnc(NC(=O)c2ccc(C(F)(F)F)c(S(C)(=O)=O)c2C)o1", "note": "[3-145]", "values": [{"measurement": "efficacy against Abutilon theophrasti (herbicidal activity in percent)", "setting": "Abutilon theophrasti [5]", "result": "at least 80%"}, {"measurement": "efficacy against Matricaria inodora (herbicidal activity in percent)", "setting": "Matricaria inodora", "result": "at least 80%"}]}, {"smiles": "Cc1c(C(=O)Nc2nnc(C(C)C)o2)ccc(C(F)(F)F)c1S(C)(=O)=O", "note": "[6-645]", "values": [{"measurement": "efficacy against Setaria viridis (herbicidal activity in percent)", "setting": "Setaria viridis", "result": "at least 80%"}, {"measurement": "efficacy against Viola tricolor (herbicidal activity in percent)", "setting": "Viola tricolor [4]", "result": "at least 80%"}, {"measurement": "efficacy against Echinochloa crus galli (herbicidal action in percent)", "setting": "Echinochloa crus galli", "result": "at least 80%"}, {"measurement": "efficacy against Pharbitis purpureum (herbicidal action in percent)", "setting": "Pharbitis purpureum", "result": "at least 80%"}]}, {"smiles": "COCc1nnc(NC(=O)c2ccc(S(C)(=O)=O)c(SC)c2Cl)o1", "note": "[5-290]", "values": [{"measurement": "efficacy against Abutilon theophrasti (herbicidal action in percent)", "setting": "Abutilon theophrasti [2]", "result": "at least 80%"}, {"measurement": "efficacy against Amaranthus retroflexus (herbicidal action in percent)", "setting": "Amaranthus retroflexus [3]", "result": "at least 80%"}]}, {"smiles": "CCS(=O)(=O)c1ccc(C(=O)Nc2nnc(C(C)C)o2)c(Cl)c1C1=NOC(CC#N)C1", "note": "(centres unmarked) [6-627]", "values": [{"measurement": "efficacy against Amaranthus retroflexus (herbicidal activity in percent)", "setting": "Amaranthus retroflexus [1]", "result": "at least 80%"}, {"measurement": "efficacy against Veronica persica (herbicidal activity in percent)", "setting": "Veronica persica", "result": "at least 80%"}]}, {"smiles": "CCS(=O)(=O)c1ccc(C(=O)Nc2nnc(C)o2)c(Cl)c1C1=NOC(CC#N)C1", "note": "(centres unmarked) [2-264]", "values": [{"measurement": "efficacy against Abutilon theophrasti (herbicidal activity in percent)", "setting": "Abutilon theophrasti [5]", "result": "at least 80%"}, {"measurement": "efficacy against Matricaria inodora (herbicidal activity in percent)", "setting": "Matricaria inodora", "result": "at least 80%"}, {"measurement": "efficacy against Viola tricolor (herbicidal action in percent)", "setting": "Viola tricolor [6]", "result": "at least 80%"}]}, {"smiles": "Cc1c(C(=O)Nc2nnc(C(F)(F)F)o2)ccc(C(F)(F)F)c1[S+](C)[O-]", "note": "(centres unmarked) [4-144]", "values": [{"measurement": "efficacy against Abutilon theophrasti (herbicidal activity in percent)", "setting": "Abutilon theophrasti [5]", "result": "at least 80%"}, {"measurement": "efficacy against Matricaria inodora (herbicidal activity in percent)", "setting": "Matricaria inodora", "result": "at least 80%"}, {"measurement": "efficacy against Abutilon theophrasti (herbicidal action in percent)", "setting": "Abutilon theophrasti [2]", "result": "at least 80%"}, {"measurement": "efficacy against Amaranthus retroflexus (herbicidal action in percent)", "setting": "Amaranthus retroflexus [3]", "result": "at least 80%"}]}, {"smiles": "CCc1nnc(NC(=O)c2ccc(S(=O)(=O)CC)c(C3=NOC(CC#N)C3)c2Cl)o1", "note": "(centres unmarked) [3-264]", "values": [{"measurement": "efficacy against Abutilon theophrasti (herbicidal activity in percent)", "setting": "Abutilon theophrasti [5]", "result": "at least 80%"}, {"measurement": "efficacy against Matricaria inodora (herbicidal activity in percent)", "setting": "Matricaria inodora", "result": "at least 80%"}, {"measurement": "efficacy against Echinochloa crus galli (herbicidal action in percent)", "setting": "Echinochloa crus galli", "result": "at least 80%"}, {"measurement": "efficacy against Pharbitis purpureum (herbicidal action in percent)", "setting": "Pharbitis purpureum", "result": "at least 80%"}, {"measurement": "efficacy against Abutilon theophrasti (herbicidal action in percent)", "setting": "Abutilon theophrasti [2]", "result": "at least 80%"}, {"measurement": "efficacy against Amaranthus retroflexus (herbicidal action in percent)", "setting": "Amaranthus retroflexus [3]", "result": "at least 80%"}]}, {"smiles": "CC(C)c1nnc(NC(=O)c2ccc(S(C)(=O)=O)c(COCC(F)(F)F)c2Cl)o1", "note": "[6-625]", "values": [{"measurement": "efficacy against Stellaria media (herbicidal action in percent)", "setting": "Stellaria media", "result": "at least 80%"}]}, {"smiles": "CCS(=O)(=O)c1ccc(C(=O)Nc2nnc(CCOC)o2)c(Cl)c1C1=NOC(CC#N)C1", "note": "(centres unmarked) [6-688]", "values": [{"measurement": "efficacy against Stellaria media (herbicidal action in percent)", "setting": "Stellaria media", "result": "at least 80%"}]}, {"smiles": "CS(=O)(=O)c1ccc(C(=O)Nc2nnc(C3CC3)o2)c(Cl)c1Cl", "note": "[6-028]", "values": [{"measurement": "efficacy against Amaranthus retroflexus (herbicidal activity in percent)", "setting": "Amaranthus retroflexus [1]", "result": "at least 80%"}, {"measurement": "efficacy against Veronica persica (herbicidal activity in percent)", "setting": "Veronica persica", "result": "at least 80%"}, {"measurement": "efficacy against Stellaria media (herbicidal action in percent)", "setting": "Stellaria media", "result": "at least 80%"}]}, {"smiles": "COCCc1nnc(NC(=O)c2ccc(S(C)(=O)=O)c(S(C)(=O)=O)c2C)o1", "note": "[6-705]", "values": [{"measurement": "efficacy against Amaranthus retroflexus (herbicidal activity in percent)", "setting": "Amaranthus retroflexus [1]", "result": "at least 80%"}, {"measurement": "efficacy against Matricaria inodora (herbicidal activity in percent)", "setting": "Matricaria inodora", "result": "at least 80%"}]}, {"smiles": "CCCc1nnc(NC(=O)c2ccc(C(F)(F)F)c(S(C)(=O)=O)c2C)o1", "note": "[6-889]", "values": [{"measurement": "efficacy against Amaranthus retroflexus (herbicidal activity in percent)", "setting": "Amaranthus retroflexus [1]", "result": "at least 80%"}, {"measurement": "efficacy against Veronica persica (herbicidal activity in percent)", "setting": "Veronica persica", "result": "at least 80%"}, {"measurement": "efficacy against Viola tricolor (herbicidal action in percent)", "setting": "Viola tricolor [6]", "result": "at least 80%"}]}, {"smiles": "Cc1c(C(=O)Nc2nnc(CC(F)(F)F)o2)ccc(C(F)(F)F)c1S(C)(=O)=O", "note": "[6-767]", "values": [{"measurement": "efficacy against Amaranthus retroflexus (herbicidal activity in percent)", "setting": "Amaranthus retroflexus [1]", "result": "at least 80%"}, {"measurement": "efficacy against Veronica persica (herbicidal activity in percent)", "setting": "Veronica persica", "result": "at least 80%"}, {"measurement": "efficacy against Viola tricolor (herbicidal action in percent)", "setting": "Viola tricolor [6]", "result": "at least 80%"}]}, {"smiles": "Cc1c(C(=O)Nc2nnc(-c3ccco3)o2)ccc(C(F)(F)F)c1S(C)(=O)=O", "note": "[6-584]", "values": [{"measurement": "efficacy against Echinochloa crus galli (herbicidal action in percent)", "setting": "Echinochloa crus galli", "result": "at least 80%"}, {"measurement": "efficacy against Pharbitis purpureum (herbicidal action in percent)", "setting": "Pharbitis purpureum", "result": "at least 80%"}]}, {"smiles": "CCc1nnc(NC(=O)c2ccc(C(F)(F)F)nc2Cl)o1", "note": "[7-3, 2-chloro-N-(5-ethyl-1,3,4-oxadiazol-2-yl)-6-(trifluoromethyl)nicotinamide]", "values": [{"measurement": "efficacy against Echinochloa crus galli (herbicidal action in percent)", "setting": "Echinochloa crus galli", "result": "at least 80%"}, {"measurement": "efficacy against Pharbitis purpureum (herbicidal action in percent)", "setting": "Pharbitis purpureum", "result": "at least 80%"}]}]}
